Results are given in words; binding and its absence hold for the method and conditions named. Binding seen in cells or lysates may run through a third protein. A yes stands for co-enrichment or nearness to the bait. Other partners may have been found. No binding means not detected with the bait.
Biological target: T1, AKAP11 (human (endogenous in human stem cell-derived neuronal cells and human cortex)), Q9UKA4
T1 chain: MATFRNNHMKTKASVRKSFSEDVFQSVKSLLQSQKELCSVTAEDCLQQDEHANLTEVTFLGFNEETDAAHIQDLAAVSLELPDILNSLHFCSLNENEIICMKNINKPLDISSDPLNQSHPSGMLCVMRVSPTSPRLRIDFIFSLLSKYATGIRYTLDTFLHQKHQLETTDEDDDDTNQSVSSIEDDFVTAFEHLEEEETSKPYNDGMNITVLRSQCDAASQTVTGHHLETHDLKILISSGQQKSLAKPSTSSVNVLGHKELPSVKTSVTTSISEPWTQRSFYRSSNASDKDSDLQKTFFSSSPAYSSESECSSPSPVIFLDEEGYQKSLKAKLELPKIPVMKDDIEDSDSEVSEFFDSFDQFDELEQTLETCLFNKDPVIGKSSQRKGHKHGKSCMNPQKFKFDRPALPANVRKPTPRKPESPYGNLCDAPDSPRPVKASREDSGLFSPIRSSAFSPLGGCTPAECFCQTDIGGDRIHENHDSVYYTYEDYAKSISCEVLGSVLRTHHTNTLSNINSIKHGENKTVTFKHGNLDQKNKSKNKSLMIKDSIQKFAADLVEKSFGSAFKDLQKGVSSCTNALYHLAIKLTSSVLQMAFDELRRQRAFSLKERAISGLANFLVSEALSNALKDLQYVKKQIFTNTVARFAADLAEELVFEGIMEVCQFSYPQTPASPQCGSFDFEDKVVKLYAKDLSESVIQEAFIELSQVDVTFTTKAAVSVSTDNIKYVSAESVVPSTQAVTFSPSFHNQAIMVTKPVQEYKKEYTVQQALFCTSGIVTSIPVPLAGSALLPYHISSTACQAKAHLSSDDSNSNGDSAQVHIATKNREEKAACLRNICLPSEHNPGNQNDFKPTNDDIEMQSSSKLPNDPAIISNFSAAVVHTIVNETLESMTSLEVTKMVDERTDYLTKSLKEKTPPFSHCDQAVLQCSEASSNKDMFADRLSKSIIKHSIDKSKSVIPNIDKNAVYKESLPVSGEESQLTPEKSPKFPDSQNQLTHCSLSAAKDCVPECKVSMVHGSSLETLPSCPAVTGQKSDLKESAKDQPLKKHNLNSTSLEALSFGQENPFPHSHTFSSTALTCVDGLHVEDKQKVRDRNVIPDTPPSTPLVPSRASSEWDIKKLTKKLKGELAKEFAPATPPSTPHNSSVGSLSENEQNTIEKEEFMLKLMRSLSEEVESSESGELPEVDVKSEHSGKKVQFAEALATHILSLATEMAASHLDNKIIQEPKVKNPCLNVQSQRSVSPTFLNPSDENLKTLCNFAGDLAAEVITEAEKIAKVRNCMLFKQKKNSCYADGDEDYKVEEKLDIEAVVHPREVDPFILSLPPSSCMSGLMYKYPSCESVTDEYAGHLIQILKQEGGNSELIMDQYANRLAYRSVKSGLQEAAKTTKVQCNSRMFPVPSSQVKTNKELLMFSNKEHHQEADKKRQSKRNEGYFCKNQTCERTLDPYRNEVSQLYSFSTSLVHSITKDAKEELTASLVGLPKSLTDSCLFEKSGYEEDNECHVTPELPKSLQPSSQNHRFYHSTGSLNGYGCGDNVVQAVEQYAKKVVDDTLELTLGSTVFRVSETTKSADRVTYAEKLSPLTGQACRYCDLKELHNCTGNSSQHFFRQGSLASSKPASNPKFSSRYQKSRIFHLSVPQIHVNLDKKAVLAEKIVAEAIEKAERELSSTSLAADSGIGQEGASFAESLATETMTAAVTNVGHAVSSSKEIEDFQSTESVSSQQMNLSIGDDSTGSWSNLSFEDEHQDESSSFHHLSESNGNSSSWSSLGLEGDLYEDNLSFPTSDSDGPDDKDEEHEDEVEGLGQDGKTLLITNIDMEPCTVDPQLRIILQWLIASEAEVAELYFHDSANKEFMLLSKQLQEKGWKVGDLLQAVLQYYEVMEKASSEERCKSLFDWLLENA
Assay: affinity purification with mass spectrometry
Conditions: remark: other sources report otherwise

binding: no binding
B1: GSK3A, P49840 1-483 (enzyme)
chain: MSGGGPSGGGPGGSGRARTSSFAEPGGGGGGGGGGPGGSASGPGGTGGGKASVGAMGGGVGASSSGGGPGGSGGGGSGGPGAGTSFPPPGVKLGRDSGKVTTVVATLGQGPERSQEVAYTDIKVIGNGSFGVVYQARLAETRELVAIKKVLQDKRFKNRELQIMRKLDHCNIVRLRYFFYSSGEKKDELYLNLVLEYVPETVYRVARHFTKAKLTIPILYVKVYMYQLFRSLAYIHSQGVCHRDIKPQNLLVDPDTAVLKLCDFGSAKQLVRGEPNVSYICSRYYRAPELIFGATDYTSSIDVWSAGCVLAELLLGQPIFPGDSGVDQLVEIIKVLGTPTREQIREMNPNYTEFKFPQIKAHPWTKVFKSRTPPEAIALCSSLLEYTPSSRLSPLEACAHSFFDELRCLGTQLPNNRPLPPLFNFSAGELSIQPSLNAILIPPHLRSPAGTTTLTPSSQALTETPTSSDWQSTDATPTLTNSS
